Values from PubChem BioAssay AID1259254 (NCATS, 2017)
Test: 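Finding genes that stop cells copying their DNA twice in one cycle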 (primary screen). Cells: human HCT116 colorectal cancer cells. Reagent: single siRNA against human genes. Time to read-out: 3 days. Measurement: 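Imaged Hoechst DNA stain sorts each cell into a cycle phase by DNA amount; per plate, G2 fraction set to 0% for non-targeting and 100% for GMNN siRNA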. Reading the numbers: G2 robust z-score and G2 cells, % of GMNN control: higher = more G2 cells, more excess DNA replication. Call rule: 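Active siRNAs have a G2 robust z of 5 or more median absolute deviations over the median, which in these data means about 38% or higher of GMNN control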.
In all, the deposit lists about 59,000 reagents; below is a part drawn at random. Over the whole deposit, about 1,550 (2.6%) got an active call. 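G2 share is only a proxy for re-replication; each gene was hit by three separate siRNAs, and active genes were retested.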 A number with no mark means an inactive call. Reagents against one gene are numbered here. Not all columns of the deposit are shown. No sequences are given here. Not given: the amount of reagent.

For IQSEC2 #1, what does the deposit list?
G2 robust z-score: 0.693; G2 cells, % of GMNN control: 7.84

For IQSEC2 #2, what was measured?
G2 robust z-score: 3.42; G2 cells, % of GMNN control: 27

For IQSEC2 #3, what does the deposit list?
G2 robust z-score: 0.51; G2 cells, % of GMNN control: 6.56

With SPTB #1, what does the deposit list?
G2 robust z-score: -1.3; G2 cells, % of GMNN control: -6.17

What is on record for SPTB #2?
G2 robust z-score: 0.357; G2 cells, % of GMNN control: 5.48

For SPTB #3, what does the deposit list?
G2 robust z-score: -1.19; G2 cells, % of GMNN control: -5.41

What is on record for TNNT1 #1?
G2 robust z-score: 0.633; G2 cells, % of GMNN control: 7.42

With TNNT1 #2, how do the results read?
G2 robust z-score: -0.339; G2 cells, % of GMNN control: 0.585

What is on record for TNNT1 #3?
G2 robust z-score: -0.528; G2 cells, % of GMNN control: -0.749

For GDF2 #1, what does the deposit list?
G2 robust z-score: 2.23; G2 cells, % of GMNN control: 18.7

What did the screen give for GDF2 #2?
G2 robust z-score: -0.0726; G2 cells, % of GMNN control: 2.46

With GDF2 #3, what was measured?
G2 robust z-score: 3.75; G2 cells, % of GMNN control: 29.4

For UBE2M #1, what was measured?
G2 robust z-score: 1.91; G2 cells, % of GMNN control: 16.4

Which result is listed for UBE2M #2?
G2 robust z-score: 0.9; G2 cells, % of GMNN control: 9.3

With UBE2M #3, what was measured?
G2 robust z-score: 0.182; G2 cells, % of GMNN control: 4.25

With NAF1 #1, what does the deposit list?
G2 robust z-score: 1.49; G2 cells, % of GMNN control: 13.4

How did the screen score NAF1 #2?
G2 robust z-score: 0.563; G2 cells, % of GMNN control: 6.93

With NAF1 #3, how do the results read?
G2 robust z-score: -0.0663; G2 cells, % of GMNN control: 2.5

Entries listed so far whose target name starts with T or t:
TNNT1 #1 — G2 robust z-score: 0.633; G2 cells, % of GMNN control: 7.42
TNNT1 #2 — G2 robust z-score: -0.339; G2 cells, % of GMNN control: 0.585
TNNT1 #3 — G2 robust z-score: -0.528; G2 cells, % of GMNN control: -0.749
